21 compounds from PubChem BioAssay AID330 (DTP/NCI, 2004) can be followed below.

The list shows only some results of the screen, not a fair sample: it gathers tests that were run many times, whatever their T/C, doses with no T/C, and many T/C values between a quarter and a half above the control. Further doses and runs are listed elsewhere. T/C is the treated group as % of the vehicle group. Some entries give survivors of the animals treated and no T/C: the source holds a T/C of zero for them, seemingly a mark for toxic or unscored doses. Some doses without a T/C left all or most animals alive at the check, yet need not have been tolerated: the source hardly ever lists a survival T/C far under the control, and the zero likely stands for such cases as well. Counts of survivors are from the toxicity check (mostly the fifth day) where no day follows; animals may have died later. Schedule codes are those of the source, taken here to give the interval after Q, in days (D) or hours (H), and the number of doses after X. Some entries hold several experiments; their values stand side by side, smallest first. Where survival is the endpoint, this PubChem deposit counts one and a half times the control or more as active, and values a quarter to a half above the control carry no call in these data; other NCI protocols may use other cut-offs. Some T/C values carry the count of animals alive at the toxicity check (mostly the fifth day); where none is given, no animal had died by that day.

The experiment has as its system P388 leukemia ip, CD2F1 mice, survival T/C. Put plainly: NCI In Vivo Anticancer Drug Screen. Data for tumor model P388 Leukemia (intraperitoneal) in CD2F1 (CDF1) mice. Particulars: T/C endpoint: median survival time, higher T/C = longer survival.
The mark [1] stands for this setting: dose: 100.0 mg/kg/injection, schedule: Q01DX009 (ip), vehicle: saline with Tween-80.
The mark [2] stands for this setting: dose: 200.0 mg/kg/injection, schedule: Q01DX009 (ip), vehicle: saline with Tween-80.
The mark [3] stands for this setting: dose: 200.0 mg/kg/injection, schedule: Q01DX009 (ip), vehicle: Klucel (hydroxypropylcellulose) (HPC).
Setting [4] is: dose: 2.0 mg/kg/injection, schedule: Q01DX009 (ip), vehicle: Klucel (hydroxypropylcellulose) (HPC).

`COc1cccc2c1C(=O)c1c(O)c3c(c(O)c1C2=O)C[C@@](O)(C(=O)CO)C[C@@H]3OC1CC(N)C(OC)C(C)O1` (some centres undefined): the T/C is 136 % of control (dose: 0.78 mg/kg/injection, schedule: Q04DX003 (ip), vehicle: water); 127 % of control (dose: 1.08 mg/kg/injection, schedule: Q04DX003 (ip), vehicle: saline); 130 % of control [5 of 6 alive] (dose: 1.56 mg/kg/injection, schedule: Q04DX003 (ip), vehicle: water); 131 % of control (dose: 1.8 mg/kg/injection, schedule: Q01DX009 (ip), vehicle: saline); 130 % of control (dose: 1.8 mg/kg/injection, schedule: Q04DX003 (ip), vehicle: saline); 139 % of control (dose: 3.0 mg/kg/injection, schedule: Q04DX003 (ip), vehicle: saline). The T/C (dose: 6.25 mg/kg/injection, schedule: Q04DX003 (ip), vehicle: water) is 136 % of control. Moreover, under “dose: 3.0 mg/kg/injection, schedule: Q01DX009 (ip), vehicle: saline”, the survivor count was 8 of 8.

`CN(C)c1ccc(/C=C/c2ccnc3ccc(Cl)cc23)cc1`: the T/C (dose: 50.0 mg/kg/injection, schedule: Q01DX009 (ip), vehicle: saline with Tween-80) was 137 % of control. Moreover, the survivor count was 6 of 6 under setting [1] and 6 of 6 under setting [2].

In the case of `CCN(CC)CCCC(CCl)Nc1ccnc2cc(Cl)ccc12` (centres undefined), the survivor count (dose: 200.0 mg/kg/injection, schedule: Q01DX009 (ip), vehicle: saline) is listed as 0 of 6.

Consider `C/C=C(\C)N=NNc1ccccc1`, for which the survivor count (dose: 400.0 mg/kg/injection, schedule: Q04DX003 (ip), vehicle: saline + Tween-80 + alcohol) is recorded as 6 of 6.

Regarding `Cc1[nH]c2ccccc2c1-c1cc(-c2cc(-c3c(C)[nH]c4ccccc34)nc(N)n2)nc(N)n1`, the survivor count (dose: 240.0 mg/kg/injection, schedule: Q01DX005 (ip), vehicle: Klucel (hydroxypropylcellulose) (HPC)) is reported as 2 of 6.

For `C=CCOC1CC(C)(O)Cc2cc3c(c(O)c21)C(=O)c1c(O)cc2c(c1C3=O)OC1OC2(C)C(O)C(N(C)C)C1O` (centres undefined), the T/C (dose: 5.0 mg/kg/injection, schedule: Q01DX009 (ip), vehicle: other) is 125 % of control. In addition, for the setting “dose: 20.0 mg/kg/injection, schedule: Q01DX009 (ip), vehicle: other”, the survivor count is 6 of 6.

`COC(=O)C1CCCCC1C(=O)OC` (centres undefined): the T/C (dose: 50.0 mg/kg/injection, schedule: Q01DX009 (ip), vehicle: saline) was 135 % of control.

`CP1(=S)C=C(NC2CCCCC2)CC1` (centres undefined): the survivor count runs as follows: (dose: 25.0 mg/kg/injection, schedule: Q01DX009 (ip), vehicle: Klucel (hydroxypropylcellulose) (HPC)) 6 of 6; (dose: 50.0 mg/kg/injection, schedule: Q01DX009 (ip), vehicle: Klucel (hydroxypropylcellulose) (HPC)) 6 of 6.

Consider `CSCNC(=S)Nc1ccc(Cl)cc1`, for which the survivor count by setting is: (dose: 100.0 mg/kg/injection, schedule: Q01DX009 (ip), vehicle: Klucel (hydroxypropylcellulose) (HPC)) 3 of 6; under setting [3], 0 of 6.

Turning to `CCCCCCCCCCCC(=O)/C=C/c1ccc(Cl)c(Cl)c1`, the survivor count under setting [3] is 6 of 6.

As for `N#Cc1cc2ccncc2c2ccccc12`, under setting [1], the survivor count was 6 of 6.

In the case of `O=[N+]([O-])c1ccc2c(c1)c(S(=O)(=O)O)cc1nonc12`, the survivor count (dose: 100.0 mg/kg/injection, schedule: Q01DX005 (ip), vehicle: saline with Tween-80) is 5 of 5.

`COC1=C(C)C(=O)C2=C(C1=O)C1C3CC4=C(C(=O)C(OC)=C(C)C4=O)C(CNC(=O)C(C)=O)N3C(C#N)C(C2)N1C` (centres undefined): the T/C was 133 % of control (dose: 0.06 mg/kg/injection, schedule: Q01DX009 (ip), vehicle: Klucel (hydroxypropylcellulose) (HPC)); 132 and 135 % of control (dose: 0.12 mg/kg/injection, schedule: Q01DX009 (ip), vehicle: Klucel (hydroxypropylcellulose) (HPC)); 130 % of control (dose: 0.12 mg/kg/injection, schedule: Q01DX009 (ip), vehicle: saline); 112 [4 of 6 alive], 125, 133, 137, 150 % of control (dose: 0.25 mg/kg/injection, schedule: Q01DX009 (ip), vehicle: Klucel (hydroxypropylcellulose) (HPC)); 130 % of control (dose: 0.25 mg/kg/injection, schedule: Q01DX009 (ip), vehicle: saline); 133 % of control (dose: 0.31 mg/kg/injection, schedule: Q01DX009 (ip), vehicle: Klucel (hydroxypropylcellulose) (HPC)). Besides, the T/C reads like this: (dose: 0.5 mg/kg/injection, schedule: Q01DX009 (ip), vehicle: Klucel (hydroxypropylcellulose) (HPC)) 134, 135, 139, 150, 171 % of control; (dose: 0.5 mg/kg/injection, schedule: Q01DX009 (ip), vehicle: saline) 137 % of control; (dose: 1.0 mg/kg/injection, schedule: Q01DX009 (ip), vehicle: Klucel (hydroxypropylcellulose) (HPC)) 142, 146 [5 of 6 alive], 166, 177, 180 % of control; under setting [4], 105 and 147 % of control. For the same compound, the survivor count is, setting by setting: (dose: 1.25 mg/kg/injection, schedule: Q01DX009 (sc), vehicle: Klucel (hydroxypropylcellulose) (HPC)) 6 of 6; under setting [4], 0 of 6 and 4 of 6; (dose: 2.25 mg/kg/injection, schedule: Q01DX009 (ip), vehicle: Klucel (hydroxypropylcellulose) (HPC)) 3 of 6; (dose: 2.5 mg/kg/injection, schedule: Q01DX009 (ip), vehicle: Klucel (hydroxypropylcellulose) (HPC)) 5 of 6; (dose: 2.5 mg/kg/injection, schedule: Q01DX009 (sc), vehicle: Klucel (hydroxypropylcellulose) (HPC)) 2 of 6 and 4 of 6; (dose: 4.0 mg/kg/injection, schedule: Q01DX009 (ip), vehicle: Klucel (hydroxypropylcellulose) (HPC)) 4 of 6. The survivor count is listed as 2 of 6 (dose: 4.5 mg/kg/injection, schedule: Q01DX009 (ip), vehicle: Klucel (hydroxypropylcellulose) (HPC)); 2 of 6 (dose: 5.0 mg/kg/injection, schedule: Q01DX009 (ip), vehicle: Klucel (hydroxypropylcellulose) (HPC)); 1 of 6 (dose: 5.0 mg/kg/injection, schedule: Q01DX009 (sc), vehicle: Klucel (hydroxypropylcellulose) (HPC)); 0 of 6 (dose: 9.0 mg/kg/injection, schedule: Q01DX009 (ip), vehicle: Klucel (hydroxypropylcellulose) (HPC)); 0 of 6 (dose: 10.0 mg/kg/injection, schedule: Q01DX009 (sc), vehicle: Klucel (hydroxypropylcellulose) (HPC)); 0 of 6 (dose: 18.0 mg/kg/injection, schedule: Q01DX009 (ip), vehicle: Klucel (hydroxypropylcellulose) (HPC)). In addition, the survivor count by setting is: (dose: 20.0 mg/kg/injection, schedule: Q01DX009 (sc), vehicle: Klucel (hydroxypropylcellulose) (HPC)) 0 of 6; (dose: 36.0 mg/kg/injection, schedule: Q01DX009 (ip), vehicle: Klucel (hydroxypropylcellulose) (HPC)) 0 of 6.

`C=C1C(=O)O[C@@H]2C[C@@]3(C)CCC[C@H](C)C3=C[C@H]12`: the survivor count (dose: 400.0 mg/kg/injection, schedule: Q01DX009 (ip), vehicle: saline with Tween-80) was 1 of 6.

For `CCOS(=O)(=O)CCl`, the survivor count is, setting by setting: under setting [1], 5 of 5; under setting [2], 0 of 6.

`CC(C)N(C(=O)c1ccc(Cl)c(Cl)c1)C(C)C`: under “dose: 50.0 mg/kg/injection, schedule: Q04DX003 (ip), vehicle: saline with Tween-80”, the T/C is 133 % of control.

As to `CN(C)N=Nc1cccc(C(N)=O)c1`, the survivor count under setting [3] is 2 of 6.

Consider `CCCCCCCC/C=C\CCCCCCCCN1CC(C(=O)[O][Pb]([CH2]C)([CH2]C)[CH2]C)CC1=O` (centres undefined), for which, under “dose: 3.0 mg/kg/injection, schedule: Q01DX009 (ip), vehicle: saline with Tween-80”, the T/C was 140 % of control. Also, under “dose: 12.0 mg/kg/injection, schedule: Q01DX009 (ip), vehicle: saline with Tween-80”, the survivor count is given as 5 of 6.

Take `COC(=O)c1ncn(Cc2ccccc2)c1N`: the survivor count runs as follows: (dose: 200.0 mg/kg/injection, schedule: Q04DX002 (ip), vehicle: saline with Tween-80) 3 of 6; (dose: 400.0 mg/kg/injection, schedule: Q04DX002 (ip), vehicle: saline with Tween-80) 0 of 6.

On to `O=C(c1cc(Nc2ccnc3cc(Cl)ccc23)ccc1O)N1CCCCC1`, for which, where the note is “dose: 50.0 mg/kg/injection, schedule: Q01DX005 (ip), vehicle: saline with Tween-80”, the T/C is 125 % of control.

`C/C(=N\SC(c1ccccc1)(c1ccccc1)c1ccccc1)c1ccccc1`: for the setting “dose: 400.0 mg/kg/injection, schedule: Q01DX001 (ip), vehicle: saline with Tween-80”, the survivor count is 6 of 6.
